Measurements published in article PMC12040169 (PLOS Biology, 2025).
Where two headings read alike, the source gives them in different places. This is one part of the list.

System: T1, CTL2-GFP (C. trachomatis L2/434/Bu, GFP-expressing)
T1 construct: L2/434/Bu, GFP-expressing
Design: species or system HeLa; Intracellular C. trachomatis growth in HeLa cells, bulk GFP fluorescence relative to DMSO
Details: bulk GFP, single well, 28.5 h, 10 µM, inhibitor

Structure (SMILES) | % of control remaining | % of control remaining (Bulk GFP fluorescence)
CCOC(=O)c1cccc(-n2ncc(CN(C)C)n2)c1 [CBK112866] | 105.688% | –
O=C(c1cnc2cc(C(F)(F)F)ccc2c1O)N1CCN(c2ccccn2)CC1 [CBK107431] | 68.8714% | –
COc1ccc(C(=O)N2CCC3(CCN(Cc4ccc(Cl)c(Cl)c4)C3)C2)cc1OC (stereo not drawn) [CBK132150] | 122.047% | –
O=C(Nc1cccc(-c2nc3ccccc3s2)c1)c1ccc(Cn2cnnn2)cc1 [CBK285823] | 135.586% | –
O=C(CN1C(=O)c2ccccc2S1(=O)=O)N(Cc1ccccc1)Cc1ccccc1 [CBK265982] | 100% | –
O=C(C1CCN(S(=O)(=O)c2ccc3ccccc3c2)CC1)N1CCC(Cc2ccccc2)CC1 [CBK269558] | 149.222% | –
CS(=O)(=O)N(CC(=O)Nc1ccc(S(=O)(=O)N2CCCC2)cc1)c1ccc2c(c1)OCO2 [CBK268995] | 118.603% | –
CN(CP(=O)(O)CCc1ccccc1)S(C)(=O)=O [CBK263068] | 99.8796% | –
CCCc1ccc(S(=O)(=O)Nc2nc(C)c(C(=O)O)s2)cc1 [CBK045555] | 107.829% | –
O=C(CNS(=O)(=O)c1ccc(Oc2ccccc2)cc1)Nc1ccc(F)cc1 [CBK042229] | 66.7498% | –
CCOc1ccccc1NC(C)CC(=O)O (stereo not drawn) [CBK058826] | 131.2% | –
CC(C)n1cnnc1CN1CCN(c2ccc(C#N)cc2)CC1 [CBK307714] | 144.571% | –
O=C(Cc1c[nH]c2ccccc12)N1CCC2(CCCN(C(=O)c3cccnc3)C2)C1 (stereo not drawn) [CBK131604] | 95.7536% | –
COC(=O)c1cn([C@H]2CO[C@H]3[C@@H]2OC[C@H]3O)nn1 [CBK289491] | 132.395% | –
Nc1ncnc2c1nc1n2[C@H]2C[C@@H](O)[C@H](O2)C1=O [CBK201259] | 135.306% | –
CCCc1ccc(S(=O)(=O)N(c2ccccc2)C2CCNCC2)cc1 [CBK165121T] | 156.461% | –
Cc1c(CN2CCCC2(C)C(=O)NC2CCCC2)cnn1C (stereo not drawn) [CBK281960] | 98.7587% | –
COc1ccc(CN2CCC(Oc3nccnc3OCCN3CCOCC3)CC2)cc1 [CBK082922T] | 94.4369% | –
O=C(O)c1ccc(CNCc2c(F)cccc2Cl)cc1 [CBK269496C] | – | 94.7855%
Fc1ccc(CCN2CCC(Oc3cncc(OCc4cccnc4)n3)C2)cc1 (stereo not drawn) [CBK084469] | 92.8169% | –
COCC(=O)NC1CCN(CC2(c3ccccc3F)CCCC2)CC1 [CBK284850] | 110.004% | –
COc1ccc(NC(=O)CSc2nnc(C3CC3)n2C)c(OC)c1 [CBK270303] | 175.099% | –
CC(Oc1cccc(Br)c1)c1nc(-c2ccc(-n3cccc3)cc2)no1 (stereo not drawn) [CBK293986] | 129.98% | –
CN(C)CCCNC(=S)Nc1ccc(Cl)cc1Cl [CBK264183] | 126.92% | –
Cc1ncc(CN(CCN(C)C)Cc2cccs2)n1C [CBK282993] | 126.8% | –
O=C(NCCNc1cnccn1)c1cc(Br)ccc1F [CBK253480] | 91.8652% | –

Structure (SMILES) | % of control remaining | % of control remaining (Bulk GFP fluorescence)
NC1(C(F)(F)F)Oc2cc(Cl)c(Cl)cc2O1 [CBK021805] | 126.748% | –
CC(C)c1ccc(-n2ncc3c(=O)[nH]cnc32)cc1 [CBK288096] | 111.059% | –
C[C@H](c1ccccc1)n1c(=O)[nH]c2ncc(-c3cccc4ncccc34)nc21 [CBK064173] | 98.8283% | –
O=c1nc(O)c2ccccc2s1 [CBK027968] | 125.469% | –
O=C(NCC1COc2ccccc2O1)c1ccc(-c2ccccc2)nc1NCCc1ccccn1 (stereo not drawn) [CBK076554] | 124.518% | –
CC(=O)NCC1CCCN(Cc2c[nH]nc2-c2c(F)cccc2F)C1 (stereo not drawn) [CBK306382] | 140.637% | –
O=C(Cn1nc(C(F)(F)F)c2c1CCC2)N1CCN(Cc2ccccc2)CC1 [CBK266113] | 100% | –
O=CNC(Cc1ccc(O)c([N+](=O)[O-])c1)C(=O)O (stereo not drawn) [CBK262421] | 113.052% | –
CS(=O)(=O)c1ccc(-c2cnc(N)c(NCc3ccncc3)n2)cc1 [CBK063647] | 133.049% | –
Nc1ncc(-c2ccc3c(c2)OCO3)nc1NCc1ccncc1 [CBK063483] | 150.714% | –
Cc1cccc(-c2n[nH]c(=S)n2CC(=O)NCc2cn(-c3ccccc3)nc2-c2ccccc2)c1 [CBK297941] | 174.338% | –
Cc1occc1-c1nnc(NCc2cnn(C)c2C)o1 [CBK304819] | 113.891% | –
O=C(CSc1nc2ccccc2c(=O)[nH]1)Nc1ccccc1O [CBK269738] | 128.112% | –
CCOc1cc(OCC)cc(C(=O)N2CCC3(CC2)CC(=O)c2c(OC)cccc2O3)c1 [CBK168012] | 112.697% | –
COc1ccc2c(c1OC)C(=O)N(c1cccc([N+](=O)[O-])c1)C2 [CBK115318] | 93.5644% | –
COCCNC(=O)CN(C)c1nc2ccccc2[nH]1 [CBK306378] | 134.391% | –
CC(=O)Nc1ccc(-c2cncc(N(C)CCN(C)C)n2)cc1 [CBK065694] | 241.455% | –
COC(=O)C1C=C(NS(=O)(=O)c2ccc(-c3ccnc(SC)n3)s2)C=CC1 (stereo not drawn) [CBK160388] | 107.704% | –
N=c1n(CCN2CCCCC2)c2ccccc2n1CC(O)COc1ccc(Cl)cc1 (stereo not drawn) [CBK262512C] | 112.857% | –
CC(O)CNC(=O)C1(c2ccccc2)CCCC1 (stereo not drawn) [CBK149542] | 133.642% | –
COc1ccc([C@@]23CC[C@@H](N)C[C@@H]2N(C(C)(C)C)CC3)cc1OC [CBK067673] | 111.739% | –
O=C(NC(=S)Nc1ccc2c(c1)Cc1ccccc1-2)c1cc([N+](=O)[O-])ccc1N1CCOCC1 [CBK268726] | 119.928% | –
O=C(Nc1cccc(O)c1)c1ccc(Br)c(S(=O)(=O)N2CCCCC2)c1 [CBK261736] | 105.731% | –
O=S(=O)(NC[C@H]1C[C@@H]2CC[N@]1C[C@@H]2CN1CCOCC1)c1cccs1 [CBK288759] | 115% | –
Cc1n[nH]cc1C(=O)NC[C@H]1CC[C@H](c2cc(C(=O)NC(C)C)c3ccccc3n2)CC1 [CBK285862] | 127.388% | –
CC(=O)N1CCC(C(=O)NC(=O)NCCOc2ccccc2Cl)CC1 [CBK034842] | 104.563% | –

As a working copy, some entries already given.
Structure (SMILES) | % of control remaining | % of control remaining (Bulk GFP fluorescence)
O=C(NC(=S)Nc1ccc2c(c1)Cc1ccccc1-2)c1cc([N+](=O)[O-])ccc1N1CCOCC1 [CBK268726] | 119.928% | –
O=C(Nc1cccc(O)c1)c1ccc(Br)c(S(=O)(=O)N2CCCCC2)c1 [CBK261736] | 105.731% | –
O=S(=O)(NC[C@H]1C[C@@H]2CC[N@]1C[C@@H]2CN1CCOCC1)c1cccs1 [CBK288759] | 115% | –
Cc1n[nH]cc1C(=O)NC[C@H]1CC[C@H](c2cc(C(=O)NC(C)C)c3ccccc3n2)CC1 [CBK285862] | 127.388% | –
CC(=O)N1CCC(C(=O)NC(=O)NCCOc2ccccc2Cl)CC1 [CBK034842] | 104.563% | –

The list goes on.

Structure (SMILES) | % of control remaining | % of control remaining (Bulk GFP fluorescence)
COc1ccnc(N2CCN(Cc3nnnn3C3CC3)CC2)n1 [CBK305808] | 113.857% | –
Cc1ccc2nc3c(cc2c1)CN(Cc1ccco1)C(=O)CO3 [CBK283594] | 123.317% | –
Cn1cncc1CN1CCNC(=O)C1c1ccccc1C(F)(F)F (stereo not drawn) [CBK305495] | 111.797% | –
CCOc1ccc(CN(C)C(C)C(=O)Nc2cc(C)no2)cc1 (stereo not drawn) [CBK305607] | 137.385% | –
CN(CC(F)(F)F)C(=O)CCc1nc(-c2cccs2)no1 [CBK282215] | 147.602% | –
Cc1cc(OCC(=O)Nc2ccc(S(=O)(=O)Nc3onc(C)c3C)cc2)cc(C)c1Cl [CBK263491] | 13.7602% | –
CC(C)[C@@H](N)Cn1nnc2ccccc21 [CBK284323] | 107.091% | –
O=C(c1cc[nH]c1)N1CCC2(CCN(Cc3ccccc3)CC2)C1 [CBK136756] | 115.711% | –
O=C(O)CN1CCN(c2ncnc3sc4c(c23)CCCC4)CC1 [CBK286836] | 120.857% | –
Cc1nc2ccc(C(=O)N(C)CCN3CCCCC3)cc2s1 [CBK281919] | 124.505% | –
CS(=O)(=O)Nc1ccc2cc(-c3cccc(C(F)(F)F)c3)cnc2n1 [CBK085671] | 116.333% | –
Cc1ccc(N2C(=O)c3ccc(C(=O)OCc4ccc([N+](=O)[O-])cc4)cc3C2=O)cc1Cl [CBK265730] | 165.827% | –
Cc1ccc2[nH]c(SCC(=O)Nc3cccc(NC(=O)C45CC6CC(CC(C6)C4)C5)c3)nc2c1 [CBK265679] | 98.5355% | –
Cc1ccc(C(=O)N2CN(C(=O)CNC(C)(C)C)CC2(C)C)cc1 [CBK089575C] | 132.643% | –
Cc1noc(C)c1C(=O)N1CCOCC1 [CBK057765] | 129.864% | –
O=C(NCc1nnc2ccccn12)c1ccccc1 [CBK288064] | 116.038% | –
O=c1[nH]c2ncc(-c3ccc4c(c3)OCO4)nc2n1C1CC1 [CBK064922] | 196.12% | –
COc1ccc2c(c1)C1(CC(=O)N(CC(=O)N(C)C)C1=O)C(=O)N2Cc1ccc2ccccc2n1 (stereo not drawn) [CBK075923] | 114.728% | –
CN(C)C(c1ccc2c(c1)OCO2)c1nnnn1C1CCCCC1 (stereo not drawn) [CBK020620] | 114.303% | –
O=[N+]([O-])c1ccc(O)c(/C=N/c2ccc3cc4ccc(/N=C/c5cc([N+](=O)[O-])ccc5O)cc4nc3c2)c1 [CBK261557] | 100% | –
c1cnn(C2CCCN(Cc3ccc(Oc4cnccn4)cc3)C2)c1 (stereo not drawn) [CBK304043] | 103.755% | –
O=[N+]([O-])c1ccc2c(c1)C(N1CCOCC1)/C(=C/COc1ccc3ccccc3c1Br)O2 (stereo not drawn) [CBK262738] | 94.6497% | –
COCCOC(=O)C1=C(C)N(c2ccc(C(=O)O)cc2)C(=O)NC1c1ccccc1Cl (stereo not drawn) [CBK296986] | 151.508% | –
O=C1C2C=NNC2C(=O)N1c1ccccc1 (stereo not drawn) [CBK022326] | 112.463% | –
Cc1ccc(C)c(NC(=O)N2CCC3(CCc4nccc(C)c4C3=O)CC2)c1 [CBK059554] | 107.197% | –
CS(=O)(=O)c1ccc(NC(=S)N2CCN(c3ccc(F)cc3)CC2)cc1 [CBK300507] | 126.255% | –
